The record followed here is the supplement of paper PMC12024529.

Counter-ions that a name gives are not always drawn. The list shows a part of the results. Baselines shift from plate to plate; read single values as rough.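 HEK293 lines stably express B-domain-deleted factor VIII fused to Gaussia luciferase, wild type or a misfolding-prone missense mutant. Scores equal triplicate-well mean luminescence minus DMSO mean, divided by DMSO standard deviation; scores of 2 or higher are hits. Low scores may indicate reduced secretion or worse cell viability.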

The subject of this assay is HEK293 WT BDD-FVIII-Gluc. The experiment in a line: secreted FVIII-Gluc luciferase Z-score vs DMSO control; higher = more FVIII-Gluc secretion. The note with it: 5 µM; 24 h.
Consider `Nc1ncnc2c1ncn2[C@@H]1O[C@H](CO)[C@@H](O)[C@@H]1O` [Vidarabine (Vira-A)], for which the “secreted FVIII-Gluc luciferase Z-score” value is inactive: -2.25.

`COc1cc(C(=O)NS(=O)(=O)c2ccccc2C)ccc1Cc1cn(C)c2ccc(NC(=O)OC3CCCC3)cc12` [Zafirlukast (Accolate)]: the “secreted FVIII-Gluc luciferase Z-score” value is inactive: -1.59.

As for `CCN(CC)CCOCCOC(=O)C(CC)(CC)c1ccccc1` [Oxeladin Citrate], the “secreted FVIII-Gluc luciferase Z-score” value was inactive: -2.72.

For `C[C@H](N[C@@H](CCc1ccccc1)C(=O)O)C(=O)N1CCC[C@H]1C(=O)O` [Enalaprilat dihydrate], the “secreted FVIII-Gluc luciferase Z-score” value is inactive: 1.73.

Turning to `CO[C@H]1/C=C/O[C@@]2(C)Oc3c(C)c(O)c4c(O)c(c(/C=N/N5CCN(C6CCCC6)CC5)c(O)c4c3C2=O)NC(=O)/C(C)=C\C=C\[C@H](C)[C@H](O)[C@@H](C)[C@@H](O)[C@@H](C)[C@H](OC(C)=O)[C@@H]1C` [Rifapentine (Priftin)], the “secreted FVIII-Gluc luciferase Z-score” value was inactive: -1.39.

Turning to `[O-]n1ccccc1=S.[O-]n1ccccc1=S.[Zn+2]` [Pyrithione zinc], the “secreted FVIII-Gluc luciferase Z-score” value was inactive: -11.3.

Consider `C=C1CC[C@H](O)C/C1=C/C=C1\CCC[C@]2(C)[C@@H]([C@H](C)/C=C/[C@H](C)C(C)C)CC[C@@H]12` [Vitamin D2], for which the “secreted FVIII-Gluc luciferase Z-score” value is inactive: 0.042.

For `CCC[S+]([O-])c1ccc2[nH]c(NC(=O)OC)nc2c1` (stereo not drawn) [Albendazole Oxide (Ricobendazole)], the “secreted FVIII-Gluc luciferase Z-score” value is inactive: -1.09.

In the case of `CC(C)[C@H](N)C(=O)OCC(CO)OCn1cnc2c(=O)nc(N)[nH]c21` (stereo partly drawn) [valganciclovir hydrochloride], the “secreted FVIII-Gluc luciferase Z-score” value was inactive: -0.698.

On to `CC(=O)/N=c1/sc(S(N)(=O)=O)nn1C` [Methazolamide], for which the “secreted FVIII-Gluc luciferase Z-score” value was inactive: -0.677.

`COc1cc(C)c(/C=C/C(C)=C/C=C/C(C)=C/C(=O)O)c(C)c1C` [Acitretin]: the “secreted FVIII-Gluc luciferase Z-score” value was inactive: -11.1.

For the compound `O=C1CN2Cc3c(ccc(Cl)c3Cl)N=C2N1` [Anagrelide HCl], the “secreted FVIII-Gluc luciferase Z-score” value is inactive: -1.17.

Take `CN(C)CCC[C@@]1(c2ccc(F)cc2)OCc2cc(C#N)ccc21` [Escitalopram oxalate]: the “secreted FVIII-Gluc luciferase Z-score” value was inactive: -0.565.

`CC(=O)OCC(=O)[C@@]1(O)[C@H](C)C[C@H]2[C@@H]3CCC4=CC(=O)C=C[C@]4(C)[C@@]3(F)[C@@H](O)C[C@@]21C` [Dexamethasone acetate]: the “secreted FVIII-Gluc luciferase Z-score” value is active: 16.1.

Regarding `C[C@]12CC[C@@H]3c4ccc(O)cc4C[C@@H](CCCCCCCCC[S+]([O-])CCCC(F)(F)C(F)(F)F)[C@H]3[C@@H]1CC[C@@H]2O` (stereo partly drawn) [Fulvestrant (Faslodex)], the “secreted FVIII-Gluc luciferase Z-score” value was inactive: 0.221.

For `Cc1ccccc1C(=O)Nc1ccc(C(=O)N2CCCC(O)c3cc(Cl)ccc32)c(C)c1` (stereo not drawn), the “secreted FVIII-Gluc luciferase Z-score” value is inactive: -2.49.

Take `COc1ccc2cccc(CCNC(C)=O)c2c1` [Agomelatine]: the “secreted FVIII-Gluc luciferase Z-score” value is inactive: 0.511.

Regarding `CN(C)CCCN1c2ccccc2Sc2ccc(C(F)(F)F)cc21` [Triflupromazine HCl], the “secreted FVIII-Gluc luciferase Z-score” value was inactive: -1.36.

With `Fc1ccc(C(c2ccc(F)cc2)N2CCN(C/C=C/c3ccccc3)CC2)cc1` [Flunarizine 2HCl], the “secreted FVIII-Gluc luciferase Z-score” value is active: 3.14.

`CC(C)NCC(O)c1cc(O)cc(O)c1` (stereo not drawn) [Metaproterenol Sulfate]: the “secreted FVIII-Gluc luciferase Z-score” value is inactive: -1.24.

Regarding `COC(=O)Nc1nc2cc([S+]([O-])c3ccccc3)ccc2[nH]1` (stereo not drawn) [Oxfendazole], the “secreted FVIII-Gluc luciferase Z-score” value is inactive: -3.5.

Take `COC(=O)C1=CO[C@@H](O[C@@H]2O[C@H](CO)[C@@H](O)[C@H](O)[C@H]2O)[C@@H]2C(CO)=CC[C@H]12` [Geniposide]: the “secreted FVIII-Gluc luciferase Z-score” value is inactive: -0.901.

For `O=C(O)c1ccccc1` [Benzoic acid], the “secreted FVIII-Gluc luciferase Z-score” value was inactive: -0.242.

With `COc1ccc2c(c1)c(CC(=O)OCC(=O)O)c(C)n2C(=O)c1ccc(Cl)cc1` [Acemetacin (Emflex)], the “secreted FVIII-Gluc luciferase Z-score” value is inactive: -1.74.

As for `CN(C)CCc1c[nH]c2ccc(C[C@H]3COC(=O)N3)cc12` [Zolmitriptan (Zomig)], the “secreted FVIII-Gluc luciferase Z-score” value was inactive: -1.35.

In the case of `CN(C)CCOC(C)(c1ccccc1)c1ccccn1` (stereo not drawn) [Doxylamine Succinate], the “secreted FVIII-Gluc luciferase Z-score” value is inactive: -0.673.

As to `CCCOc1ccc(C(=O)OCCN(CC)CC)cc1N` [Proparacaine HCl], the “secreted FVIII-Gluc luciferase Z-score” value is active: 2.26.

In the case of `C=C[C@]1(C)C[C@@H](OC(=O)CS[C@@H]2C[C@H]3CC[C@@H](C2)N3C)[C@]2(C)[C@H](C)CC[C@]3(CCC(=O)[C@H]32)[C@@H](C)[C@@H]1O` [Retapamulin], the “secreted FVIII-Gluc luciferase Z-score” value is inactive: -0.745.

Turning to `CCN(CC)CC#CCOC(=O)C(O)(c1ccccc1)C1CCCCC1` (stereo not drawn) [Oxybutynin chloride], the “secreted FVIII-Gluc luciferase Z-score” value was inactive: 0.469.

Regarding `NS(=O)(=O)c1cc2c(cc1Cl)NCNS2(=O)=O` [Hydrochlorothiazide], the “secreted FVIII-Gluc luciferase Z-score” value was inactive: -1.84.

Consider `Cn1c(=O)c2c(ncn2CC2OCCO2)n(C)c1=O` [Doxofylline], for which the “secreted FVIII-Gluc luciferase Z-score” value is inactive: 1.45.

Consider `CCCNCC(O)COc1ccccc1C(=O)CCc1ccccc1` (stereo not drawn) [Propafenone (Rytmonorm)], for which the “secreted FVIII-Gluc luciferase Z-score” value is inactive: -1.57.

Turning to `CN(C)/N=N/c1[nH]cnc1C(N)=O` [Dacarbazine (DTIC-Dome)], the “secreted FVIII-Gluc luciferase Z-score” value is inactive: 0.83.

As to `CN(C)CCc1c[nH]c2ccc(Cn3cncn3)cc12` [Rizatriptan Benzoate], the “secreted FVIII-Gluc luciferase Z-score” value was inactive: -1.52.

As for `CC1=C(C(=O)OC(C)C)C(c2cccc([N+](=O)[O-])c2)C(C(=O)OC2CN(C(c3ccccc3)c3ccccc3)C2)=C(N)N1` (stereo not drawn) [Azelnidipine], the “secreted FVIII-Gluc luciferase Z-score” value was inactive: -2.95.

On to `Nc1nc(CC(=O)Nc2ccc(CCNC[C@H](O)c3ccccc3)cc2)cs1` [Mirabegron (YM178)], for which the “secreted FVIII-Gluc luciferase Z-score” value was inactive: -0.676.

For `Clc1ccc2nsnc2c1NC1=NCCN1` [Tizanidine HCl], the “secreted FVIII-Gluc luciferase Z-score” value is inactive: -2.66.

For the compound `CCOC(=O)O[C@]1(C(=O)OCCl)CC[C@H]2[C@@H]3CCC4=CC(=O)C=C[C@]4(C)[C@H]3[C@@H](O)C[C@@]21C` [Loteprednol etabonate], the “secreted FVIII-Gluc luciferase Z-score” value was inactive: -1.58.
